Experimental data from article PMC11327102.

Molecular target: T1, HA-TurboID-PRDX6 (not stated (human or mouse cDNA cloned)) (UniProt O08709)
T1 sequence: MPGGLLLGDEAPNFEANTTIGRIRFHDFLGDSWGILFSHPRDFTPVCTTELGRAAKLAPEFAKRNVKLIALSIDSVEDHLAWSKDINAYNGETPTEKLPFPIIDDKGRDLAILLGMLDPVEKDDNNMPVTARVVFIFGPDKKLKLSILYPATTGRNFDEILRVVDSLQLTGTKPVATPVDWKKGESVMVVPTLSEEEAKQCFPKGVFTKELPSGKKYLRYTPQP
Test: proximity labelling; WT or PRDX6 KO MEFs expressing HA-TurboID-empty, -PRDX1 or -PRDX6, 30 min with DMSO or 50 uM biotin; lysates incubated with Streptavidin Sepharose overnight at 4 °C; pulldown analysed by immunoblotting

binding: binds
Molecule: selenophosphate synthetase 2 (SEPHS2) in MEFs (from UniProt P97364 1-452) (enzyme)

binding: binds
B1: selenocysteine lyase (SCLY) in MEFs (enzyme, UniProt Q9JLI6 1-432)
chain: MDAARNGALGSVESLPDRKVYMDYNATTPLEPEVIQAVTEAMKEAWGNPSSSYVSGRKAKDIINAARASLAKMIGGKPQDIIFTSGGTESNNLVIHSMVRCFHEQQTLKGNMVDQHSPEEGTRPHFITCTVEHDSIRLPLEHLVENQMAEVTFVPVSKVNGQAEVEDILAAVRPTTCLVTIMLANNETGVIMPVSEISRRIKALNQIRAASGLPRVLVHTDAAQALGKRRVDVEDLGVDFLTIVGHKFYGPRIGALYVRGVGKLTPLYPMLFGGGQERNFRPGTENTPMIAGLGKAADLVSENCETYEAHMRDIRDYLEERLEAEFGKRIHLNSRFPGVERLPNTCNFSIQGSQLQGYTVLAQCRTLLASVGASCHSNHEDRPSPVLLSCGIPVDVARNAVRLSVGRGTTRADVDLIVQDLKQAVAQLEGRL

Results are given in words; binding and its absence hold for the method and conditions named. Binding seen in cells or lysates may run through a third protein. Here binding means that the protein was enriched with, or labelled near, the bait; the list need not be complete. Where a sequence is shown, tags or fusion partners need not be part of it. Each block holds one molecule with its values, some of them ahead of it.
